We go through four sequences from publication PMC11117858.

The chains behind the UniProt entries cited, without tags or fusion partners. Residues count along the entry.
UniProt Q9NZQ7, 19-290: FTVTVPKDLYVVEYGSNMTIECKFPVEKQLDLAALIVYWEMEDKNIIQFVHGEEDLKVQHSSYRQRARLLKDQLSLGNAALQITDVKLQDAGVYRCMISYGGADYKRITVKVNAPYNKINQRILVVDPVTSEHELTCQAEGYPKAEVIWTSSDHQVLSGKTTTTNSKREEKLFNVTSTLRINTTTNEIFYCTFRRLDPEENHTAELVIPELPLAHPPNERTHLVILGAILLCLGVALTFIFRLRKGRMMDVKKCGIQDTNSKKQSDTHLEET
UniProt P08962, 2-238: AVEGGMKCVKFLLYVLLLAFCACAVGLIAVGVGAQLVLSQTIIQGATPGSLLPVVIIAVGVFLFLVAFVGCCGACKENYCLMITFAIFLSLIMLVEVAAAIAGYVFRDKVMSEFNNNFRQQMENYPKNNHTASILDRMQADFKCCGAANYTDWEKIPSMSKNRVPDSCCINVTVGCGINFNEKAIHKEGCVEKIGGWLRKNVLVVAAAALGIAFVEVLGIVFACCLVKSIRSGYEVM

For some of these results: Negatives hold for the conditions tested. At least one verdict was read from the data and is not stated in words by the source. For some of these results: Construct, isoform or probe ends are uncertain for at least one entry.

In one data set the target is PD-L1 on A549 exosomes (UniProt Q9NZQ7). The experiment in a line: proximity ligation/RCA/TR-FRET on exosomes. The conditions noted are these: 10 nM aptamer with Cho primer, assay LOD 0.77 ng/uL; 1x PBS, 5 mM MgCl2, 0.2% BSA (w/v), 37 C, 1 h; exosome-coated microspheres blocked with glycine/BSA; pH not stated; native protein; single-stranded DNA. For orientation: In TR-FRET formats the signal depends on donor and acceptor labels being close together.

Data set [1] addresses CD63 on SH-SY5Y exosomes (UniProt P08962). The experiment in a line: proximity ligation/RCA/TR-FRET on exosomes. The note with it: 10 nM aptamer with Cho primer, assay LOD 0.46 ng/uL exosomes in buffer, 1.56 in FBS; 1x PBS, 5 mM MgCl2, 0.2% BSA (w/v), 37 C, 1 h; exosome-coated microspheres blocked with glycine/BSA; pH not stated; native protein; single-stranded DNA.
Data set [2] shares this target. The experiment in a line: flow cytometry on exosome-coated microspheres. The conditions noted are these: random-sequence control, 5 mM Mg2+; 1x PBS, 5 mM MgCl2, 0.2% BSA (w/v), 37 C, 1 h; exosome-coated microspheres blocked with glycine/BSA; pH not stated; native protein; label: 5' Cy5; single-stranded DNA. Background: In flow cytometry, cells or beads pass a laser one at a time.

The target of a further data set is HER2 on A549 exosomes (UniProt P04626). The experiment in a line: proximity ligation/RCA/TR-FRET on exosomes. The note with it: 10 nM aptamer with Cho primer, assay LOD 1.1 ng/uL; 1x PBS, 5 mM MgCl2, 0.2% BSA (w/v), 37 C, 1 h; exosome-coated microspheres blocked with glycine/BSA; pH not stated; native protein; single-stranded DNA.

For “ACGGGCCACATCAACTCATTGATAGACAATGCGTCCACTGCCCGTTTTTTTTTTTTTTTGACGCTAATAGTTAAGACGCT [Apt-PD-L1]”, the binding result with PD-L1 on A549 exosomes is given as “binds”.

Turning to “ATATACACCCCACCTCGCTCCCGTGACACTAATGCTATTTTTTTTTTTTTTTGACGCTAATAGTTAAGACGCTT [Apt-CD63]”, the binding result in the data set with CD63 on SH-SY5Y exosomes [1] is “binds”.

For CTTTTCGGGATTTATGC [MU-Cy5], in the data set with CD63 on SH-SY5Y exosomes [2], the binding result was “no binding”.

Regarding “TCTAAAAGGATTCTTCCCAAGGGGATCCAATTCAAACAGCTTTTTTTTTTTTTTTGACGCTAATAGTTAAGACGCT [Apt-HER2]”, the binding result with HER2 on A549 exosomes is given as “binds”.
